This experiment concerns the target tyrosine-protein kinase Fyn (human (endogenous in decidual MDSCs)) (UniProt P06241). Kind of experiment: co-IP; anti-Fyn antibody overnight at 4°C, protein A/G agarose beads; nondenatured lysate of purified human decidual MDSCs infected with T. gondii, with or without anti-Tim-3 mAb or 20 μg/ml rGal-9; Western blot. (A western blot detects proteins with antibodies after separation by electrophoresis.)

Sequences of proteins named here, by UniProt entry; tags and fusion partners are left off.
UniProt P06241: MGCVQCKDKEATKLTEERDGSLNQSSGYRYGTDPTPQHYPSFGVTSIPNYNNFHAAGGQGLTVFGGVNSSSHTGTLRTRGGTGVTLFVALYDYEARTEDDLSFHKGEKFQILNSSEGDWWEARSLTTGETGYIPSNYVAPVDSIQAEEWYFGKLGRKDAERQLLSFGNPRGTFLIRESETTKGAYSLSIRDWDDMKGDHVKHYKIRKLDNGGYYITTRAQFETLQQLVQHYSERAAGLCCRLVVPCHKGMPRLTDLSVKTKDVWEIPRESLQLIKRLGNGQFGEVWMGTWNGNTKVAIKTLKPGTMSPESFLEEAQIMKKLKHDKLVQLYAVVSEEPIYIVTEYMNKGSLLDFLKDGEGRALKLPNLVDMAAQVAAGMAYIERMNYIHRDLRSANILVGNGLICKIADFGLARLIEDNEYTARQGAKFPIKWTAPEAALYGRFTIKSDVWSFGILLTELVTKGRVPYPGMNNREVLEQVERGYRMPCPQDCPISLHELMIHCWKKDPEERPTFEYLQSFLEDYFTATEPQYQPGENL
UniProt P40763: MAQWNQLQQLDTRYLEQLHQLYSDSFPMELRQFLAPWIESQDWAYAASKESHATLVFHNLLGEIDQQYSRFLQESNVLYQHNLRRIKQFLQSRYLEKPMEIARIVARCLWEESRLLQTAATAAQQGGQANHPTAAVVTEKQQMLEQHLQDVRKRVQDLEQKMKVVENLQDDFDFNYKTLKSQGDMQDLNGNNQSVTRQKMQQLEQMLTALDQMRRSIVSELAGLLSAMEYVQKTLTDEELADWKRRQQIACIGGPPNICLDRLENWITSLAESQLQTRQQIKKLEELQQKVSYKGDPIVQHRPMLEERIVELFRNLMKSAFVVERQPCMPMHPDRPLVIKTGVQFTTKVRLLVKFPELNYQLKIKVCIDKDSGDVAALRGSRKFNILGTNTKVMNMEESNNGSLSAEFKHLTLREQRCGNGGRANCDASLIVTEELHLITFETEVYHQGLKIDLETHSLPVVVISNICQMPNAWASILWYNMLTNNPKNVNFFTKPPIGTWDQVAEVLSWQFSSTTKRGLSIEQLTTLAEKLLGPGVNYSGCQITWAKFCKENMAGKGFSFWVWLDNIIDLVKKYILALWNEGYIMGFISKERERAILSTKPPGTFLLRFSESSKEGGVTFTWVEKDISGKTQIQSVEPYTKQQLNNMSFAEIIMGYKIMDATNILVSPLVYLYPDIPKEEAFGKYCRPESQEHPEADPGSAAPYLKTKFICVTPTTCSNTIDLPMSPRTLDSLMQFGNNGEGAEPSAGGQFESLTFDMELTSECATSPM

This note sets out measurements from article PMC10132691.

No constants are given. Whether binding was seen depends on the method and setting. Binding seen in cells or lysates may run through a third protein. Some entries that bind do so weakly or less than the wild type.

As to “phosphorylated STAT3 (from UniProt P40763 1-770)”, the binding result was “binds”.
